Test results reported in PMC8025885, “Cryo-EM of kinesin-binding protein: challenges and opportunities from protein-surface interactions” (Acta Crystallographica. Section D, Structural Biology, 2021).
These are yes or no findings as the source states them, for the method shown.

Molecular target: T1, human KIF1A motor domain and neck linker construct (human) (UniProt Q12756)
T1 sequence: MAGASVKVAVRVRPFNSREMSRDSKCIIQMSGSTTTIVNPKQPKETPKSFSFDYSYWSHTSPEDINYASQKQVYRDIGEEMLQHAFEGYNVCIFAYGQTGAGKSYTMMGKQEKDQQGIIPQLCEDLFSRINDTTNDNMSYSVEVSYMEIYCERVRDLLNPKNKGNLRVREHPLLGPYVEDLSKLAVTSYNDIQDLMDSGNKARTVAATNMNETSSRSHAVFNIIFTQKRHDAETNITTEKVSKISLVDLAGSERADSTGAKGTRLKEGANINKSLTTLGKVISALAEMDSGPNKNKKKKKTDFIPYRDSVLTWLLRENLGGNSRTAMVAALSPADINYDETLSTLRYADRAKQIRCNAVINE
Test: condition: only on holey gold grids without GO (unsupported ice); cryo-EM 2D classification; purified complex diluted to 0.15 mg/ml in KBP dilution buffer plus 0.2 mM ADP, on holey gold grids without GO; small preliminary data set; both purified

B1: kinesin-binding protein (protein, UniProt Q96EK5 1-621)
chain: MANVPWAEVCEKFQAALALSRVELHKNPEKEPYKSKYSARALLEEVKALLGPAPEDEDERPEAEDGPGAGDHALGLPAEVVEPEGPVAQRAVRLAVIEFHLGVNHIDTEELSAGEEHLVKCLRLLRRYRLSHDCISLCIQAQNNLGILWSEREEIETAQAYLESSEALYNQYMKEVGSPPLDPTERFLPEEEKLTEQERSKRFEKVYTHNLYYLAQVYQHLEMFEKAAHYCHSTLKRQLEHNAYHPIEWAINAATLSQFYINKLCFMEARHCLSAANVIFGQTGKISATEDTPEAEGEVPELYHQRKGEIARCWIKYCLTLMQNAQLSMQDNIGELDLDKQSELRALRKKELDEEESIRKKAVQFGTGELCDAISAVEEKVSYLRPLDFEEARELFLLGQHYVFEAKEFFQIDGYVTDHIEVVQDHSALFKVLAFFETDMERRCKMHKRRIAMLEPLTVDLNPQYYLLVNRQIQFEIAHAYYDMMDLKVAIADRLRDPDSHIVKKINNLNKSALKYYQLFLDSLRDPNKVFPEHIGEDVLRPAMLAKFRVARLYGKIITADPKKELENLATSLEHYKFIVDYCEKHPEAAQEIEVELELSKEMVSLLPTKMERFRTKMALT
- binding: no binding
